Results as given in paper PMC6274817.
Results are given in words; binding and its absence hold for the method and conditions named. Some entries that bind do so weakly or less than the wild type. One block for each binder: values may come before it.

Biological target: T1, rice heterotrimeric G protein β subunit, Gβ (rice (Oryza sativa)) (UniProt Q40687)
T1 sequence: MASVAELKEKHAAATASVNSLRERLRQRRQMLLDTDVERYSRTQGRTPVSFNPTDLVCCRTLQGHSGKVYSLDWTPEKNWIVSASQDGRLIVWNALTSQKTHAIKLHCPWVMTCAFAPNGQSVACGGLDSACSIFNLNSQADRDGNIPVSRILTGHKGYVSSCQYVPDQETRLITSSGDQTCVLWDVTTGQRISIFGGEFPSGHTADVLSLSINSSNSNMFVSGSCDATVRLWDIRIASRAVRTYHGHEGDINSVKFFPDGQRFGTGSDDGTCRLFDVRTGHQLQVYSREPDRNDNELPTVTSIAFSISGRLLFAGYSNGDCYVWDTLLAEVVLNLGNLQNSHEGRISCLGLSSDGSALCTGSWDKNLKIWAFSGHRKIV
Test: two-hybrid; yeast two-hybrid, data not shown; bait and prey not stated

binding: binds
B1: rice heterotrimeric G protein γ4 subunit, Gγ4 (protein, UniProt Q67UU9 1-426)
chain: MGEEAVVMEAPRPKSPPRYPDLCGRRRMQLEVQILSREITFLKDELHFLEGAQPVSRSGCIKEINEFVGTKHDPLIPTKRRRHRSCRLFRWIGSKLCICISCLCYCCKCSPKCKRPRCLNCSCSSCCDEPCCKPNCSACCAGSCCSPDCCSCCKPNCSCCKTPSCCKPNCSCSCPSCSSCCDTSCCKPSCTCFNIFSCFKSLYSCFKIPSCFKSQCNCSSPNCCTCTLPSCSCKGCACPSCGCNGCGCPSCGCNGCGCPSCGCNGCGLPSCGCNGCGSCSCAQCKPDCGSCSTNCCSCKPSCNGCCGEQCCRCADCFSCSCPRCSSCFNIFKCSCAGCCSSLCKCPCTTQCFSCQSSCCKRQPSCCKCQSSCCEGQPSCCEGHCCSLPKPSCPECSCGCVWSCKNCTEGCRCPRCRNPCCLSGCLC

binding: binds
B2: truncated Gγ4 of the RGG4 mutant Dn1-1, Gγ4∆Cys (domain or fragment, UniProt Q67UU9 1-170)
chain: MGEEAVVMEAPRPKSPPRYPDLCGRRRMQLEVQILSREITFLKDELHFLEGAQPVSRSGCIKEINEFVGTKHDPLIPTKRRRHRSCRLFRWIGSKLCICISCLCYCCKCSPKCKRPRCLNCSCSSCCDEPCCKPNCSACCAGSCCSPDCCSCCKPNCSCCKTPSCCKPNC
